Laboratory results taken from the supplement of paper PMC8326762, “A Small Molecule Inhibitor of Pex3–Pex19 Interaction Disrupts Glycosome Biogenesis and Causes Lethality in Trypanosoma brucei” (Frontiers in Cell and Developmental Biology, 2021).
Where a name gives a salt, the structure may show the parent alone. This is one part of the list. Single values of this set are uncertain.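 Yeast growth was read as optical density at 600 nm. The two-hybrid strains grew without histidine, so growth needed the Pex3–Pex19 binding; a compound counted as trypanosome-selective if it cut growth of the trypanosome-pair strain by more than 65% and the human-pair strain by less than 65%.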

Experiments:
[1] = tested on: Saccharomyces cerevisiae HF7c pdr5Δ; assay: general growth inhibition of yeast HF7c pdr5Δ in -Leu -Trp medium, relative to DMSO; higher = stronger general growth inhibition; settings: 100 µM; 24 h
[2] = tested on: human PEX3-PEX19 interaction (yeast two-hybrid); assay: growth inhibition of yeast two-hybrid strain reporting HsPex3-HsPex19 interaction, relative to DMSO; higher = stronger inhibition of human Pex3-Pex19 interaction / growth; settings: 100 µM; 24 h; 3-aminotriazole 10 mM
[3] = tested on: T. brucei Pex3-Pex19 interaction (yeast two-hybrid); assay: growth inhibition of yeast two-hybrid strain reporting TbPex3-TbPex19 interaction, relative to DMSO; higher = stronger inhibition of T. brucei Pex3-Pex19 interaction / growth; settings: 100 µM; 24 h

Row | SMILES | general growth inhibition [1] [%] | growth inhibition [2] [%] | growth inhibition [3] [%]
1 | NC1(C(=O)O)CC1 [1-Aminocyclopropanecarboxylic acid hydrochloride] | 32.3 | 32.6 | 49.7
2 | CN1Cc2c(N)cccc2C(c2ccccc2)C1 (stereo not given) [Nomifensine maleate] | 9.67 | 5.72 | 40.3
3 | O=C(O)Cn1c(C(=O)Nc2nc(-c3ccccc3Cl)cs2)cc2ccccc21 | 29.8 | 23.9 | 60.8
4 | COc1cc([C@@H]2c3cc4c(cc3[C@@H](O[C@@H]3O[C@@H]5CO[C@@H](C)O[C@H]5[C@H](O)[C@H]3O)[C@H]3COC(=O)[C@H]23)OCO4)cc(OC)c1O [Etoposide] | 14.6 | 32.6 | 55.1
5 | O=c1ccc2c(OCCCCc3ccccc3)c3ccoc3cc2o1 [Psora-4] | 43.6 | 34 | 50.5
6 | N[C@@H](C(=O)N[C@@H]1C(=O)N2C(C(=O)O)=C(Cl)CS[C@H]12)c1ccccc1 [Cefaclor] | 46.4 | 51.7 | 61.5
7 | O=c1cc(-c2ccc(O)cc2)oc2cc(O)cc(O)c12 [Apigenin] | 39.2 | 28 | 53.1
8 | C[C@](N)(Cc1ccc(O)cc1)C(=O)O [L-alpha-Methyl-p-tyrosine] | 44.3 | 36.9 | 61.1
9 | COc1cc(Cc2cnc(N)nc2N)cc(OC)c1OC [Trimethoprim] | 16.6 | 7.63 | 39.5
10 | CCN(CC)CCNC(=O)c1ccc(NC(C)=O)cc1 [N-Acetylprocainamide hydrochloride] | 14.7 | 14.5 | 32.2
11 | Cc1cccc(/C=C/c2ccccc2)n1 | 37.2 | 30.3 | 52.3
12 | Nc1nc(OCc2ccccc2)c2nc[nH]c2n1 [O6-benzylguanine] | 34.6 | 31.9 | 40.7
13 | CC(C)NCC(O)c1ccc(O)c(O)c1 (stereo not drawn) [R(-)-Isoproterenol (+)-bitartrate] | 8.71 | 8.42 | 32.4
14 | NCCCS(=O)(=O)O [3-Amino-1-propanesulfonic acid sodium] | 35 | 42.6 | 59
15 | N=C(N)SCCc1c[nH]cn1 [Imetit dihydrobromide] | 16.7 | 4.21 | 35.7
16 | CC1(C2CCCC2)Cc2cc(OCC(=O)O)c(Cl)c(Cl)c2C1=O (stereo not given) | 41.7 | 44.5 | 54.9
17 | N#CC(C#N)=C(N)/C(C#N)=C/c1cc(O)c(O)c(O)c1 [Tyrphostin 51] | 44.7 | 38.8 | 59.3
18 | O=Nc1c(-c2c(O)[nH]c3ccccc23)[nH]c2ccccc12 [Indirubin-3'-oxime] | 24.6 | 8.42 | 29.3
19 | Cn1cnc2c(NCc3ccccc3)nc(NCCO)nc21 [Olomoucine] | 27.3 | 11 | 58.8
20 | COC(=O)c1c(C)[nH]c(C)c1C(=O)c1ccccc1Cc1ccccc1 | 40.1 | 32.6 | 35.9
21 | CCCC(CCC)C(=O)O [Valproic acid sodium] | 38.4 | 39.7 | 48.4
22 | CC[C@H]1OC(=O)[C@H](C)[C@@H](O[C@H]2C[C@@](C)(OC)[C@@H](O)[C@H](C)O2)[C@H](C)[C@@H](O[C@@H]2O[C@H](C)C[C@H](N(C)C)[C@H]2O)[C@](C)(O)C[C@@H](C)CN(C)[C@H](C)[C@@H](O)[C@]1(C)O [Azithromycin dihydrate] | 9.56 | 7.23 | 26.6
23 | c1ccc(C2CN3CCSC3=N2)cc1 (single isomer, unassigned; (-)) [(-)-Tetramisole hydrochloride] | 46.8 | 47.1 | 63.3
24 | NCCS(=O)O [Hypotaurine] | 41 | 40.3 | 51.2
25 | COc1cccc(OC)c1OCCNCC1COc2ccccc2O1 (stereo not given) [WB-4101 hydrochloride] | 18.8 | 39 | 54.3
26 | O=C1N(c2ccccc2)c2ccccc2C1(Cc1ccncc1)Cc1ccncc1 [Linopirdine] | 44.9 | 43.5 | 59.6
27 | CCN(CC)CCOc1ccc(Nc2ncc3cc(-c4c(Cl)cccc4Cl)c(=O)n(C)c3n2)cc1 | 26.2 | 22 | 54.3
28 | Cn1c(=O)c2nc[nH]c2n(C)c1=O [Theophylline] | 55.9 | 52.8 | 72.2
29 | COc1cccc(OC)c1OCCNCC1CSc2ccccc2O1 (stereo not given) [Benoxathian hydrochloride] | 39.6 | 42.3 | 45.7
30 | COC(=O)[C@@H](N)Cc1ccc(O)c(O)c1 [L-3,4-Dihydroxyphenylalanine methyl ester hydrochloride] | 48.9 | 48.4 | 61.6

Numbers 20 to 21, reprinted for reference:
Row | SMILES | general growth inhibition [1] [%] | growth inhibition [2] [%] | growth inhibition [3] [%]
20 | COC(=O)c1c(C)[nH]c(C)c1C(=O)c1ccccc1Cc1ccccc1 | 40.1 | 32.6 | 35.9
21 | CCCC(CCC)C(=O)O [Valproic acid sodium] | 38.4 | 39.7 | 48.4
